For this series the following is noted: control samples containing no 25OHD.

With `O=C([O-])c1ccccc1O.[Na+]` [sodium salicylate], the “concentration with detrimental effects to the assay signal” value was at least 4%, the “concentrations very well tolerated” value was “below 1%” and the “concentrations with minor effects of decreasing signal of the assay” value is 1-4%.
In the case of methyl β-cyclodextrin, the “concentration with detrimental effects to the assay signal” value is on record as at least 0.0125%.

The values above are taken from patent publication US10197581B2, “Vitamin D assays” (Enzo Life Sciences, Inc., priority 2013, dated 2019).
